PubChem BioAssay AID686938 – Drosophila RNAi Screening Center – 2013
The deposit covers about 23,000 reagents; shown is an unselected part of those with a known target gene and a result. In the full data, 75 (0.33%) were called active. 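Raw plate signals without normalisation; calls rest on plate z-scores that were not deposited; ratio present for only 364 wells.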 Names joined by + are all predicted targets of the reagent. Not stated in the record: the dose of the treatment.

Test: 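Knock-downs reducing store-operated calcium influx in Drosophila cells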 (primary screen)
Cell system: Drosophila S2R+ cells
Knock-down reagent: long dsRNA against Drosophila genes, about 0.25 µg dsRNA per well, roughly 10,000 cells
Timing: 5 days of knock-down before the calcium assay
Conditions: thapsigargin (SERCA pump blocker) to empty calcium stores; entry signal taken 4 min after adding it
Measurement: 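Duplicate raw fluo-4 intensities per well from a plate reader, at rest and four minutes after thapsigargin emptied calcium stores; entry-to-rest ratio filled for only some wells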
Reading the numbers: calcium entry signal: higher = stronger calcium signal after store depletion; entry to resting ratio: higher = more calcium entry relative to resting level; resting calcium signal: higher = higher resting calcium signal
Rule for the call: 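Called when the plate z-score of the entry-to-rest ratio, mean of duplicates, falls below −3; wells with low overall dye signal (Fmax z below −2) or more than five off-targets excluded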
Calls: active = strongly reduced calcium entry; inactive = no strong reduction

| Gene | amplicon | calcium entry signal, replicate 1 (fluorescence units) | calcium entry signal, replicate 2 (fluorescence units) | entry to resting ratio | resting calcium signal, replicate 1 (fluorescence units) | resting calcium signal, replicate 2 (fluorescence units) | call |
| --- | --- | --- | --- | --- | --- | --- | --- |
| pio (GeneID 37929) | DRSC04386 | 4.54e7 | – | – | 2.17e7 | – | inactive |
| AP-1gamma (GeneID 31842) | DRSC18433 | 1.50e7 | 3.59e7 | – | 8.32e6 | 1.73e7 | inactive |
| CG4984 + CG4975 | DRSC06907 | 3.62e7 | 4.46e7 | – | 1.74e7 | 2.23e7 | inactive |
| CG4984 + CG4975 | DRSC06908 | 3.17e7 | 2.48e7 | – | 1.45e7 | 1.34e7 | inactive |
| CG1698 (GeneID 36006) | DRSC06640 | 3.27e7 | 2.77e7 | – | 1.47e7 | 1.34e7 | inactive |
| Zip88E (GeneID 41847) | DRSC15562 | 3.96e7 | 5.46e7 | – | 1.91e7 | 5.86e7 | inactive |
| CG8112 (GeneID 41033) | DRSC16377 | 4.83e7 | 3.95e7 | – | 2.21e7 | 1.91e7 | inactive |
| Tbc1d8-9 (GeneID 40361) | DRSC11820 | 3.13e7 | 3.64e7 | – | 1.35e7 | 2.20e7 | inactive |
| CG34288 (GeneID 5740644) | DRSC13564 | 4.12e7 | 3.56e7 | – | 2.12e7 | 1.65e7 | inactive |
| CG14770 (GeneID 31085) | DRSC17947 | 3.56e7 | 3.61e7 | 2.1 | 1.68e7 | 1.54e7 | inactive |
| CG32488 (GeneID 326220) | DRSC08549 | 2.88e7 | 1.77e7 | – | 1.41e7 | 1.09e7 | inactive |
| CG32488 (GeneID 326220) | DRSC21537 | 3.42e7 | 4.79e7 | – | 1.87e7 | 2.15e7 | inactive |
| Cyp310a1 (GeneID 35115) | DRSC03301 | 5.39e7 | – | – | 2.67e7 | – | inactive |
| CG31407 (GeneID 318716) | DRSC12761 | 3.42e7 | 5.38e7 | – | 1.71e7 | 2.37e7 | inactive |
| Osi6 (GeneID 40760) | DRSC12128 | 4.16e7 | 3.47e7 | – | 2.02e7 | 1.68e7 | inactive |

2 entries already listed, arranged by “resting calcium signal, replicate 2 (fluorescence units)”, high to low:
| Gene | amplicon | calcium entry signal, replicate 1 (fluorescence units) | calcium entry signal, replicate 2 (fluorescence units) | entry to resting ratio | resting calcium signal, replicate 1 (fluorescence units) | resting calcium signal, replicate 2 (fluorescence units) | call |
| --- | --- | --- | --- | --- | --- | --- | --- |
| CG34288 (GeneID 5740644) | DRSC13564 | 4.12e7 | 3.56e7 | – | 2.12e7 | 1.65e7 | inactive |
| CG14770 (GeneID 31085) | DRSC17947 | 3.56e7 | 3.61e7 | 2.1 | 1.68e7 | 1.54e7 | inactive |

More results follow:
| Gene | amplicon | calcium entry signal, replicate 1 (fluorescence units) | calcium entry signal, replicate 2 (fluorescence units) | entry to resting ratio | resting calcium signal, replicate 1 (fluorescence units) | resting calcium signal, replicate 2 (fluorescence units) | call |
| --- | --- | --- | --- | --- | --- | --- | --- |
| UbcE2H (GeneID 31728) | DRSC18221 | 2.98e7 | 2.25e7 | – | 1.15e7 | 1.05e7 | inactive |
| mthl13 (GeneID 246395) | DRSC05238 | 4.01e7 | 5.60e7 | – | 1.71e7 | 2.37e7 | inactive |
| Lip1 (GeneID 43973) | DRSC03364 | 2.90e7 | 4.29e7 | – | 1.31e7 | 1.97e7 | inactive |
| Cda5 (GeneID 33158) | DRSC00003 | 1.84e7 | 4.77e7 | – | 1.02e7 | 2.45e7 | inactive |
| Cda5 (GeneID 33158) | DRSC00529 | 3.15e7 | 3.37e7 | – | 1.94e7 | 1.57e7 | inactive |
| Cda5 (GeneID 33158) | DRSC00532 | 3.87e7 | 3.07e7 | – | 1.78e7 | 1.48e7 | inactive |
| Cda5 (GeneID 33158) | DRSC21330 | 3.69e7 | 2.13e7 | – | 1.58e7 | 1.13e7 | inactive |
| beat-IIIb (GeneID 35031) | DRSC02435 | 3.71e7 | 2.57e7 | – | 1.78e7 | 1.22e7 | inactive |
| CG14195 (GeneID 32911) | DRSC19550 | 5.14e7 | 6.22e7 | – | 2.55e7 | 2.58e7 | inactive |
